Results are given in words; binding and its absence hold for the method and conditions named. In cells and extracts the contact can be indirect. Binding can be weak; no strength is given. Sequences can lack the tags named with a protein.
Target: T1, Flag-tagged Rheb (Drosophila) (UniProt Q9VND8)
T1 sequence: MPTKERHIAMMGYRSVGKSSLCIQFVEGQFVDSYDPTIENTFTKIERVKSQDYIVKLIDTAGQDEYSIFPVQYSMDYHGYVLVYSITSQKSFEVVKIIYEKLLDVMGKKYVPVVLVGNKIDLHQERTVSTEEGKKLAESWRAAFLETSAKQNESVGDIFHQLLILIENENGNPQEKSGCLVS
Experiment: co-IP

- binding: binds
Substance: Myc-tagged Cln7 (from UniProt Q9VS51)

Source: article doi:10.1101/278895
